± gives the standard deviation of the averaged measurements.
Test system: HepaRG
Experiment: LDH release cytotoxicity, % of total lysis control; higher = more cytotoxic
Details: 48 h
How it was run: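 Percent cytotoxicity was scaled between on-plate vehicle and total lysis controls, then averaged over duplicate wells. The cells were single-lot HepaRG on collagen I-coated 96-well plates, exposed for 48 h to eight-point half-log test chemical series topping at 100 µM in serum-free induction medium with 0.5% DMSO. Total lysis wells got 0.1% Triton X, and LDH in 50 µL spent medium was read as resorufin fluorescence (CytoTox-ONE, Tecan Safire).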

CC(C)(C)c1ccc(O)cc1 [4-tert-Butylphenol] gave an LDH release cytotoxicity (0.03162 µM) of -1.49 ± 1%, an LDH release cytotoxicity (0.1 µM) of -1.07 ± 1.4% and an LDH release cytotoxicity (0.3162278 µM) of -0.895 ± 1.4%. The LDH release cytotoxicity (1 µM) was -1.81 ± 1.4%, the LDH release cytotoxicity (3.16228 µM) was -1.48 ± 0.38% and the LDH release cytotoxicity (10 µM) was -1.04 ± 1.5%. It also gave an LDH release cytotoxicity (31.6228 µM) of -0.404 ± 1.2% and an LDH release cytotoxicity (100 µM) of 48.6 ± 3.1%.
With Oc1c(Cl)cc(Cl)cc1Cl [2,4,6-Trichlorophenol] the LDH release cytotoxicity (0.031623 µM) was -0.828 ± 0.2%, the LDH release cytotoxicity (0.1 µM) was -2.22 ± 0.092% and the LDH release cytotoxicity (0.316228 µM) was -1.66 ± 0.41%. The LDH release cytotoxicity (1 µM) was -2.86 ± 1.5%, the LDH release cytotoxicity (3.16228 µM) was -1.67 ± 0.49% and the LDH release cytotoxicity (10 µM) was -2.16 ± 0.035%. For the same molecule, the LDH release cytotoxicity (31.6228 µM) was -1.47 ± 1.2% and the LDH release cytotoxicity (100 µM) was 0.385 ± 0.048%.
CS(=O)(=O)c1ccc(C(CC2CCCC2)C(=O)Nc2cnccn2)cc1Cl (stereo not given) showed an LDH release cytotoxicity (0.03162 µM) of -1.48 ± 0.44%, an LDH release cytotoxicity (0.1 µM) of -1.58 ± 1.5% and an LDH release cytotoxicity (0.3162278 µM) of -1.31 ± 0.0065%. The LDH release cytotoxicity (1 µM) was -2.08 ± 0.18%, the LDH release cytotoxicity (3.16228 µM) was -1.592 ± 0.013% and the LDH release cytotoxicity (10 µM) was -1.71 ± 1.1%. For the same molecule, the LDH release cytotoxicity (31.6228 µM) was -0.413 ± 0.65% and the LDH release cytotoxicity (100 µM) was 17.4 ± 0.39%.
CCCCCCCC1CCC(=O)O1 (stereo not given) [5-Heptyldihydro-2(3H)-furanone] gave an LDH release cytotoxicity (0.0317809 µM) of -0.367 ± 0.12%, an LDH release cytotoxicity (0.1005 µM) of -0.913 ± 0.3% and an LDH release cytotoxicity (0.317809 µM) of -0.865 ± 0.25%. It also gave an LDH release cytotoxicity (1.005 µM) of -1.31 ± 0.2%, an LDH release cytotoxicity (3.17809 µM) of -0.869 ± 0.13% and an LDH release cytotoxicity (10.05 µM) of -0.67 ± 0.14%. It also gave an LDH release cytotoxicity (31.7809 µM) of -0.32 ± 0.19% and an LDH release cytotoxicity (100.5 µM) of 0.547 ± 0.29%.
Cc1ccc(O)cc1C [3,4-Dimethylphenol] gave an LDH release cytotoxicity (0.03162 µM) of -1.25 ± 0.25%, an LDH release cytotoxicity (0.1 µM) of -1.43 ± 1.4% and an LDH release cytotoxicity (0.3162278 µM) of -1.77 ± 1.1%. The LDH release cytotoxicity (1 µM) was -2.44 ± 0.054%, the LDH release cytotoxicity (3.16228 µM) was -1.293 ± 0.01% and the LDH release cytotoxicity (10 µM) was -0.728 ± 0.74%. The LDH release cytotoxicity (31.6228 µM) was 0.0948 ± 0.2% and the LDH release cytotoxicity (100 µM) was 0.792 ± 1.1%.
